Values from PubChem BioAssay AID1259308 (NCATS, 2017)
The whole screen tested about 59,000 reagents; this is a part drawn at random. Of all reagents, about 1,510 (2.6%) were called active. 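Calls use total luciferase alone and ignore viability, so some active siRNAs may act by altering cell number.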 The numbers tell different reagents against one gene apart. Further read-outs or replicates are left out here. No sequences are given here.

- Test: 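Genes whose loss raises luciferase production in HEK293 cells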 (primary screen)
- Cell system: human HEK293 embryonic kidney cells stably expressing firefly luciferase (HEK-CMV-Luc2-Hygro)
- Reagents: single siRNA against human genes, 0.8 pmol siRNA per well
- Time to read-out: 72 h
- Measurement: 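Luciferase light (ONE-Glo) measured on one replicate plate set and viability (CellTiter-Glo) on the other, scaled to a negative control siRNA, with robust z-scores and luciferase per cell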
- Reading the numbers: total luciferase, z-score and total luciferase, % of control: higher = more reporter protein produced
- Hit rule: 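Active when the median/MAD z-score for overall luciferase is greater than 3; a gene was taken forward for validation with new siRNAs if at least two of its three siRNAs passed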
- Meaning of the calls: active = raised luciferase; inactive = no rise

Target gene	siRNA no.	total luciferase, z-score	total luciferase, % of control	Outcome
KCNA10 (potassium voltage-gated channel subfamily A member 10)	1	-0.311	75.7	inactive
KCNA10 (potassium voltage-gated channel subfamily A member 10)	2	-0.158	78.8	inactive
KCNA10 (potassium voltage-gated channel subfamily A member 10)	3	-0.00248	81.8	inactive
STK25 (serine/threonine kinase 25)	1	-2.05	41.2	inactive
STK25 (serine/threonine kinase 25)	2	-1.04	61.3	inactive
STK25 (serine/threonine kinase 25)	3	2.1	124	inactive
EEF1A1P48	1	-1.26	56.8	inactive
EEF1A1P48	2	-0.844	65.1	inactive
EEF1A1P48	3	-1.07	60.5	inactive
SESN2 (sestrin 2)	1	0.672	95.2	inactive
SESN2 (sestrin 2)	2	4.08	163	active
SESN2 (sestrin 2)	3	1.19	106	inactive
ARFGAP2 (ARF GTPase activating protein 2)	1	0.116	84.2	inactive
ARFGAP2 (ARF GTPase activating protein 2)	2	-2.03	41.6	inactive
ARFGAP2 (ARF GTPase activating protein 2)	3	-0.797	66	inactive
ZNFX1 (zinc finger NFX1-type containing 1)	1	2.08	123	inactive
ZNFX1 (zinc finger NFX1-type containing 1)	2	1.23	106	inactive
ZNFX1 (zinc finger NFX1-type containing 1)	3	-0.0592	80.7	inactive
ART5 (ADP-ribosyltransferase 5)	1	-2.04	41.4	inactive
ART5 (ADP-ribosyltransferase 5)	2	1.5	112	inactive
ART5 (ADP-ribosyltransferase 5)	3	0.69	95.6	inactive
SIN3A (SIN3 transcription regulator family member A)	1	-1.02	61.6	inactive
SIN3A (SIN3 transcription regulator family member A)	2	-0.492	72.1	inactive
SIN3A (SIN3 transcription regulator family member A)	3	-1.6	50.2	inactive
DAPK1 (death associated protein kinase 1)	1	-1.83	45.4	inactive
DAPK1 (death associated protein kinase 1)	2	1.85	119	inactive
DAPK1 (death associated protein kinase 1)	3	-0.347	75	inactive
ZNF662 (zinc finger protein 662)	1	3.36	149	active
ZNF662 (zinc finger protein 662)	2	-0.0254	81.4	inactive
ZNF662 (zinc finger protein 662)	3	-0.293	76.1	inactive
OR12D2 (olfactory receptor family 12 subfamily D member 2)	1	0.843	98.7	inactive
OR12D2 (olfactory receptor family 12 subfamily D member 2)	2	0.0238	82.4	inactive
OR12D2 (olfactory receptor family 12 subfamily D member 2)	3	1.54	113	inactive
FLRT2 (fibronectin leucine rich transmembrane protein 2)	1	0.891	99.6	inactive
FLRT2 (fibronectin leucine rich transmembrane protein 2)	2	0.544	92.7	inactive
FLRT2 (fibronectin leucine rich transmembrane protein 2)	3	-0.434	73.3	inactive
KRTAP19-3 (keratin associated protein 19-3)	1	-0.752	66.9	inactive
KRTAP19-3 (keratin associated protein 19-3)	2	-1.4	53.9	inactive
KRTAP19-3 (keratin associated protein 19-3)	3	-0.956	62.9	inactive
RPL6P16 (ribosomal protein L6 pseudogene 16)	1	0.524	92.3	inactive
RPL6P16 (ribosomal protein L6 pseudogene 16)	2	-0.245	77	inactive
RPL6P16 (ribosomal protein L6 pseudogene 16)	3	1.05	103	inactive
SDK1 (sidekick cell adhesion molecule 1)	1	0.5	91.8	inactive
SDK1 (sidekick cell adhesion molecule 1)	2	0.247	86.8	inactive
SDK1 (sidekick cell adhesion molecule 1)	3	-0.854	64.9	inactive
ZNF418 (zinc finger protein 418)	1	1.31	108	inactive
ZNF418 (zinc finger protein 418)	2	0.254	86.9	inactive
ZNF418 (zinc finger protein 418)	3	-0.771	66.6	inactive
ZNF418 (zinc finger protein 418)	4	-0.673	68.5	inactive
ZNF418 (zinc finger protein 418)	5	0.157	85	inactive
ZNF418 (zinc finger protein 418)	6	0.299	87.8	inactive
EGFEM1P (EGF like and EMI domain containing 1, pseudogene)	1	-1.07	60.6	inactive
EGFEM1P (EGF like and EMI domain containing 1, pseudogene)	2	-0.0903	80.1	inactive
EGFEM1P (EGF like and EMI domain containing 1, pseudogene)	3	1.42	110	inactive
EGFEM1P (EGF like and EMI domain containing 1, pseudogene)	4	-1.98	42.4	inactive
EGFEM1P (EGF like and EMI domain containing 1, pseudogene)	5	-2.37	34.7	inactive
EGFEM1P (EGF like and EMI domain containing 1, pseudogene)	6	0.494	91.7	inactive

Part of the list above, limited to “total luciferase, z-score”.
ARFGAP2 (ARF GTPase activating protein 2) #3: -0.797
ZNFX1 (zinc finger NFX1-type containing 1) #1: 2.08
ZNFX1 (zinc finger NFX1-type containing 1) #2: 1.23
ZNFX1 (zinc finger NFX1-type containing 1) #3: -0.0592
ART5 (ADP-ribosyltransferase 5) #1: -2.04
